Source: the supplement of paper PMC3334620
In all, about 33,000 sequences were measured (“E-score (-0.5 to 0.5)”: median about -0.0014, highest 2% from about 0.25 on). This is one part of the list.

Molecular target: T1, Cad1 (UniProt P24813)
T1 sequence: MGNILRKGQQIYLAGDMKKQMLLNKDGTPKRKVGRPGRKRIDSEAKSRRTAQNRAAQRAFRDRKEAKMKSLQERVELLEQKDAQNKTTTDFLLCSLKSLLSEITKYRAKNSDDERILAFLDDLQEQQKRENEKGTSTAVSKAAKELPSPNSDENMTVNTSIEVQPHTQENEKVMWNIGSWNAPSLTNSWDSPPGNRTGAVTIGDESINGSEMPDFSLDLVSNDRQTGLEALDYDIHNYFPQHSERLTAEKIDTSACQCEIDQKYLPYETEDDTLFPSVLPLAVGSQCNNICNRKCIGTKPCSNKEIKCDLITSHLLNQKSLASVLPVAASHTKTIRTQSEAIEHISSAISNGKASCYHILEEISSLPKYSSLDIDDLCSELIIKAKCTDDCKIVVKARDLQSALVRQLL
Test: PBM E-score (8-mer binding enrichment) (E-score (-0.5 to 0.5)); higher = stronger / more preferred TF binding
Settings: protein concentration: 100 nM; construct: GST-full length
Method in brief: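 Yeast transcription factors carrying a GST tag, as full-length proteins or DNA-binding domains, were produced by PURExpress in vitro transcription/translation. About 100-200 nM protein was applied to universal all-10-mer Agilent arrays, double-stranded by primer extension on fresh or once-stripped slides. Bound protein was detected with fluorescent anti-GST, and scans were normalised with masliner. The Universal PBM Analysis Suite gave each ungapped eight-base word, pooled with its reverse complement, an E-score, a modified Wilcoxon-Mann-Whitney statistic.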

Sequence	PBM E-score
CACACCTG	-0.232
GCCTACCA	-0.141
CTCAGTTC	-0.0283
TAATACTA	0.303
ACTGACTG	-0.0382
CCTAATGC	-0.146
ACGGAGCC	-0.219
AGGCGTAC	0.0312
AACGGACA	0.235
CTGATAAC	-0.106
ATCTAAAA	0.00312
ACCCGAAT	0.0321
AATTTTTC	0.145
CGCACTCC	-0.206
CGTTCGCC	-0.204
CAGGGGAA	-0.168
GAACCGCC	-0.0961
TCCCCGGA	-0.0362
CTAGTTTC	0.0946
CGTAAGGC	0.0848
GAAAATTC	0.167
TCCTCGAA	-0.0511
GACTTAGC	-0.0912
ACTTGTAG	0.00244
ACCTCGGC	0.138

Sequence	PBM E-score
ACAGTGCC	-0.00411
CACAATCA	0.00489
GGATACAC	0.105
AGACGCAT	-0.00538
CCATAAAG	-0.145
ATCTTGCC	0.0506
ATCCGCAC	0.11
CTGAGGGC	-0.223
ATAAATAT	0.179
CGGTATCC	-0.0516
TTACCCAA	-0.144
ACCACACT	0.0497
ATCCCTCC	0.0298
CGTGTAAC	-0.0789
TAGCTTGA	-0.0678
CCCTCGCG	0.0362
TAGTGCGA	0.0537
GACGAAGA	-0.119
ATAATTGA	0.149
GAGATTAC	0.0954
CGCACGGA	0.0086
TCGCACCA	0.0505
GCGGCCAC	-0.175
CGGTCGCC	-0.0194
CTACACCC	-0.0312

Sequence	PBM E-score
CGACCGTC	-0.131
ACAACCGA	0.0584
ATTATGCC	0.0752
AGCTACCC	-0.0472
CAGACATG	-0.139
AAACCTCG	0.0478
ACAGTCCT	0.0222
ATTGAAGA	-0.0755
ATCCTCAC	0.0838
AATTCACT	0.171
AGCGCGCG	0.311
GCTCGCTA	-0.0118
AGTACCAT	-0.0404
AGTGAGAA	0.0636
TGGAATAA	0.0715
ATAGGAGG	-0.255
AATGAACA	0.053
GTATACGA	-0.0859
CATTTTCC	0.109
GGCACGCC	-0.238
CAAAAGGC	-0.0254
TTAAACAA	-0.157
CATCCGGG	-0.159
GAACTTTA	-0.0275
CGGGCCTA	-0.0675

Sequence	PBM E-score
GACGAGCC	-0.123
ATGTATAC	0.0966
CATTGATC	0.02
GCATGCTA	0.00906
ACGACCCA	-0.121
CGGCCACA	-0.0618
CGCAATTC	0.105
ACGCGTAA	0.176
AGGCTCAA	-0.0839
ATGAATGG	0.038
ACCCGGAT	-0.257
ACACGGCG	0.0831
CGGACCAG	0.00646
CAAAGCGC	0.082
GGCTATAA	-0.104
AGATAGAT	-0.198
ATCCTTAG	-0.11
ATCTCACG	0.0403
ATCCCGCC	-0.117
ACCACAGG	-0.227
AACCTCAT	0.0743
GCAACAGA	0.053
ATGGAATC	0.246
CTCACCAA	0.0934
ACGTGCGA	-0.204

Single entries from the results shown.
Entry of CGTGTAAC under PBM E-score: -0.0789
Entry of TAGCTTGA under PBM E-score: -0.0678
Entry of TGGAATAA under PBM E-score: 0.0715

Going on with the list:

Sequence	PBM E-score
ATTTGTCC	0.253
ATCAAGAG	0.0956
CAGCACCC	-0.205
GCTGGCAC	-0.069
ATTGGACC	-0.0465
GTCTCTAA	-0.0666
CCAAAGCC	-0.22
CCGTCTAG	-0.128
ACACAGTC	-0.0166
AACCGCAA	0.0521
CTGATGCC	0.0515
CTTTCTCC	-0.243
CTAATCAC	0.326
ACTACATA	0.0142
GTTCCCGA	-0.087
GCCCTAAC	0.155
AAGGACTG	-0.0258
CTCATGGC	-0.0384
TAGCTATA	-0.0378
GCATGTCA	0.0455
CCCTCCGG	-0.252
GGCCGAAC	-0.055
CGTCGAAA	0.209
GCTTCAAC	-0.078
GAGGTGAA	-0.075

Seven successive entries already listed, quoted:
Sequence	PBM E-score
CCAAAGCC	-0.22
CCGTCTAG	-0.128
ACACAGTC	-0.0166
AACCGCAA	0.0521
CTGATGCC	0.0515
CTTTCTCC	-0.243
CTAATCAC	0.326

Remaining list, next part:

Sequence	PBM E-score
CCAAAGAG	-0.144
TCGTATAA	0.148
AAATAACC	-0.106
AATTTTGG	0.149
AGAGGAGG	-0.228
ATACGCCA	-0.0655
CACGCCCA	-0.0284
CGGCGGGA	-0.175
AAGGAATA	0.154
CAACCGTG	0.00095
CCCACATC	-0.119
ACGAGTAC	0.0399
CCTCAGCC	-0.202
GGTCAACC	-0.0724
AGATTACA	0.143
GCTAAACC	-0.153
GAGAGCAA	-0.0855
AGCTTTAA	0.0334
GAATCGTA	0.0597
GTTCGCGA	0.212
ACTAAGAC	0.0188
ACCGAGAC	-0.00882
AGTTATAC	0.0622
GAGCCGCC	-0.142
CTGTCCCA	-0.0681

Sequence	PBM E-score
CTCGTCAA	-0.0823
CGAATACG	0.121
CAACCTCG	0.0729
CGGCATCC	-0.027
AAGCAGGT	-0.108
ACCGGAGC	-0.168
ACCTCCCT	-0.18
CTTCCCTC	-0.233
ACGCCACA	0.0464
CTGTAAAC	-0.219
TAGAGGGA	-0.182
CGTATACC	-0.2
CCAATCTA	0.0946
AATCCCGC	0.0701
AGTAAGTC	0.168
TACCAACA	0.0974
TCTGTGCA	0.162
TGGAGAAA	-0.151
GCCTGACA	-0.117
CTATCTAC	0.154
AACATTTG	-0.238
CTAGCTTC	0.0393
ACATCTCT	-0.156
AGTCGTCA	-0.0732
AAAACGCG	0.224

Sequence	PBM E-score
GGCAAAAA	0.163
GGAGGGTA	-0.0609
CCCTACAA	-0.14
TGGCCAAA	0.137
ACCACCTC	-0.078
GATCGTAC	-0.0816
AAGGTCCG	-0.0449
CAGTTTCC	-0.0956
GATTCGCC	0.0401
CGCCAGTA	-0.115
CCCCTCCC	-0.199
ATGGCCCA	0.0199
TAAAAGTA	0.176
AATCAAGA	0.183
ATAGGACG	0.00938
AGCCACCT	-0.159
GGCTACCA	-0.0708
ATGATTAG	0.094
TGATAAAA	0.111
GATTTCAA	0.013
GGTTCTGA	0.133
GCCGTGAC	0.102
GCATGCGA	0.225
CGTTACGA	0.111
CGTCGCAG	0.101

In another format: entries from further up
Sequence,PBM E-score
ATCTAAAA,0.00312
AATGAACA,0.053
GGCACGCC,-0.238
ACCCGGAT,-0.257

The list goes on:

Sequence	PBM E-score
AGCCCAAC	-0.189
AGTCATCA	0.0969
ATCGACTC	-0.153
CAATGATG	-0.0763
CCCGGTGA	-0.209
GGATGGTA	0.16
GGACATTA	0.218
ACGTAACC	0.0866
CATCTTGA	-0.0628
ACTGACCG	-0.108
AACGCATT	0.131
CAGGGCGA	-0.00695
GGGACGAA	-0.108
ATCTTGAG	-0.149
GGAGATAC	-0.0445
CTTCCCGA	0.0789
CGTGACAA	0.039
CCCGAAAA	-0.0489
AGTGTGCC	0.0333
CGGGGGTA	-0.251
CATGTACC	-0.192
GCCTGCCA	0.033
AATGCTGT	-0.00176
AGGCTAAT	0.0951
CACGCTTA	0.226

Sequence	PBM E-score
CATAAGAC	0.00465
ATGGGTAG	-0.149
TGACCGAA	0.041
ACTGTAAA	0.0881
AAACCAAA	-0.0292
GCAGCACA	0.0775
GGCAGTAA	0.00948
GCCGACAC	0.0111
GAGGATTA	0.147
CTTCGATA	0.00144
GAACTTGC	-0.0085
ACCCGGAG	0.229
CGTGGGGC	-0.113
AAGCTAAT	0.224
AGTTATCG	0.225
CTGTGTAC	0.079
ACCAACAT	0.14
GCCGCCTA	-0.106
CCGTACTC	-0.0921
GGTCACCA	-0.342
CTATCGAG	0.0129
CAGATCCA	0.0809
CAGGTGAA	0.0221
CCAGCGAA	-0.145
CCAAAACC	-0.0108

Sequence	PBM E-score
ACTGTCTG	-0.134
AAATAGTA	0.181
GTCAACAA	0.0597
AGCCAGCC	-0.165
ATGCACCC	-0.0452
ACATGGAC	-0.043
AGCCCACA	-0.13
GGGGTATA	-0.158
CGGCATTC	-0.018
GGACAAAA	0.0884
CACTCGAC	0.0744
CTGGGAAG	-0.0327
AAAGGGCC	-0.246
CAAATGTC	-0.055
TCATTTCA	-0.0423
CTGAGAAC	0.0127
ATTGGCGC	-0.0169
CCAGGGCC	-0.14
GGAATGGA	-0.11
AGACCGAG	-0.173
GCGAATAA	0.0329
AAGTCCAG	-0.0379
AAAAAGAG	-0.15
ACTTAAGC	0.106
CGGGACGA	0.0472

Sequence	PBM E-score
AATTCTAC	0.138
ACGATAAG	0.0346
ACGGGCTA	-0.21
GCTTGCAA	0.172
TAATCTCA	0.0993
ACATGGCG	-0.147
ATAGGTAG	0.0553
AAGTTAAA	0.2
CCGCGACG	0.198
CTTCTGAA	0.0469
AGCTGTCC	-0.0506
TACGAAAA	0.0721
ACTAAAAC	0.116
CCCCGACC	-0.206
CGGCAACA	0.108
AATAATGC	0.242
CGTCACCA	-0.0123
AAACCTGC	0.0617
TACGCCTA	-0.0619
AGAGTTTG	0.0139
GGGTGTCA	-0.0261
TAGAGCGA	-0.114
CGGATCTA	0.0112
CTCTTACA	-0.0393
CGGAGCAA	-0.127

Sequence	PBM E-score
ACACGCCA	0.0485
ACTCCCGC	-0.0846
ATGTAAAC	0.211
GCCCGCAA	0.129
AAAGGACT	-0.224
GTTCGCCA	-0.171
GAATAGGA	-0.038
ATCATCAT	0.0935
AAACTAAG	0.166
ACAGATAT	0.0957
ACGTTTCG	-0.0535
CATCAAAA	-0.00359
ATGCTGAA	0.0202
AAGCCATC	0.0891
GAACACAA	-0.0302
ATCGCGCA	0.0635
GTCATCAC	0.111
AATATTAG	0.213
GCCTCTCC	-0.304
TCCTTAGA	-0.0941
CACGTCCA	-0.149
AGACCTGA	0.0374
ATTAGTTA	0.362
CAGCCGAC	-0.0946
TAGGGAGA	-0.104

Sequence	PBM E-score
AGGCGTGC	-0.0381
ATTCAGTG	0.0362
AGACTATC	-0.0211
ACAGTAGG	-0.158
AGCGCACG	0.237
CGTCAGTA	-0.0374
AAAACGAG	0.0463
AGGTTTAA	-0.0294
GAGGGAGC	-0.25
CCGGCGAG	0.125
TGATATAA	-0.0984
ACTGCTTG	-0.214
ACTACAGA	0.154
ATCCCCTG	-0.289
CCACTAGG	-0.253
AATACCGC	0.0597
CTTCATAA	0.163
CGACAACA	0.117
ATTTTCCA	0.209
